The results in this text go back to publication PMC5618205.

These are yes or no findings as the source states them, for the method shown. Binding seen in cells or lysates may run through a third protein. Some results given as binding are weak or reduced against the parent protein; the word gives no strength. Tags and fused reporters may be left off the sequences shown.

In experiment [1] the target is T1, Elp1-HA (Elongator subunit Elp1, HA-tagged) (S. cerevisiae) (UniProt Q06706).
T1 sequence: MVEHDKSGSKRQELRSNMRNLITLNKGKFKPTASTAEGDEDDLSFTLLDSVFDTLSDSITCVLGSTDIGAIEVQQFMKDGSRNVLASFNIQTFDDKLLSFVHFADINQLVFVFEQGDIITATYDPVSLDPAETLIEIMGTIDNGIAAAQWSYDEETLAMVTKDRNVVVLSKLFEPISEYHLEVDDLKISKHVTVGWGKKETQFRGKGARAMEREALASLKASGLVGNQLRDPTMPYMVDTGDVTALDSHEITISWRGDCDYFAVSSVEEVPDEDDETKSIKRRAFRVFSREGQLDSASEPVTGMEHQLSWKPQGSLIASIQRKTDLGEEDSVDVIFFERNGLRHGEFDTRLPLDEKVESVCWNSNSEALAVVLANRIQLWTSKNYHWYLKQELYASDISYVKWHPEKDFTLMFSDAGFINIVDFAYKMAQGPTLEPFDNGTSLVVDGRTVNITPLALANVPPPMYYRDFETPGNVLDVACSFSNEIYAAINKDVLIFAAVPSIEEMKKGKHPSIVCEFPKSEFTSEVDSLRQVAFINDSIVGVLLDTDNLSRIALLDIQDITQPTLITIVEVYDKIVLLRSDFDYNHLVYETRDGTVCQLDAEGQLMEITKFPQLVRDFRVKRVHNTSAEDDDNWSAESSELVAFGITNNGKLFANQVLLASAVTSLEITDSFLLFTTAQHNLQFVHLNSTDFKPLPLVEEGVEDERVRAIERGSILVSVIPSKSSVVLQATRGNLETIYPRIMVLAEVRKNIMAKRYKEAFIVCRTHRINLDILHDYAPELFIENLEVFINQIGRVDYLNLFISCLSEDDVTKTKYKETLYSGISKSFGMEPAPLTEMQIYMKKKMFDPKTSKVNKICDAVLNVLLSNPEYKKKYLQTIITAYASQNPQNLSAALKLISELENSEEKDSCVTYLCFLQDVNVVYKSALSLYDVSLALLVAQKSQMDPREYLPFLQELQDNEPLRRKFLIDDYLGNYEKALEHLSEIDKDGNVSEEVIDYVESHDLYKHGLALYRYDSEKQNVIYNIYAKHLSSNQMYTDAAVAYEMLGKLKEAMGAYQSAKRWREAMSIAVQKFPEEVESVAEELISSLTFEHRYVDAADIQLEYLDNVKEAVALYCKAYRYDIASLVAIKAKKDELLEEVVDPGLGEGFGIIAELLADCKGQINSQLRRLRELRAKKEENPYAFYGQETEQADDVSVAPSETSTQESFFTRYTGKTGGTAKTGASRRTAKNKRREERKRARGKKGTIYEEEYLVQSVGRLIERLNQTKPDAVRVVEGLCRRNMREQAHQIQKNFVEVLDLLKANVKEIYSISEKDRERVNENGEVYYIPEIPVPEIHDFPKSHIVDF
In words: co-IP; anti-HA (3F10) immune precipitation of the HA-tagged Elongator subunit (Elp2-HA or Elp1-HA) from total yeast extracts of co-expressing strains; IPs probed with anti-c-Myc (9E10) for Kti12 variants.

For experiment [2], the target named is T2, Elp2-HA (Elongator subunit Elp2, HA-tagged) (S. cerevisiae) (UniProt P42935).
T2 sequence: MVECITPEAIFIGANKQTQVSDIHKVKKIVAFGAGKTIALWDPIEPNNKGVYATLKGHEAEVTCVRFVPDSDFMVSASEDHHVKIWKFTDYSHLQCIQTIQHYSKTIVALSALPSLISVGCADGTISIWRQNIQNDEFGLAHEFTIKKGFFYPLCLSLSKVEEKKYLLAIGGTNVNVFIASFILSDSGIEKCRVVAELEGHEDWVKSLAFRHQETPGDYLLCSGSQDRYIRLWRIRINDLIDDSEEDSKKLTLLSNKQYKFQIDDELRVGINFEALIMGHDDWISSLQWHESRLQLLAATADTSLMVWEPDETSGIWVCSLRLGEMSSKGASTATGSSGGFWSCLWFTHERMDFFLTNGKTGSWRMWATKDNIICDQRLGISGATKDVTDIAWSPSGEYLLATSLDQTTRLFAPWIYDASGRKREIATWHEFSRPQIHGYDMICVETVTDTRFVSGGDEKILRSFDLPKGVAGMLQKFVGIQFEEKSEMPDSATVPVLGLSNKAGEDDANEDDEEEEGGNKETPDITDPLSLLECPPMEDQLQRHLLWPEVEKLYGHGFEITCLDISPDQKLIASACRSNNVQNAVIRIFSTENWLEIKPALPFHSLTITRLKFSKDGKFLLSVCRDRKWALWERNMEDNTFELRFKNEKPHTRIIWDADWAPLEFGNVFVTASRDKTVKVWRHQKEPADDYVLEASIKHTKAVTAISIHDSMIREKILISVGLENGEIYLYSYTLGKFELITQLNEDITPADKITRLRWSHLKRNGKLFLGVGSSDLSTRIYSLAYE
Described as above.

B1: Kti12-c-Myc (wild-type Kti12, c-Myc-tagged) (protein, UniProt P34253 1-313)
chain: MPLVLFTGYPCSGKTTLAKHLVQLLQSKIDATPSLSKYSITYHSDESLGIKHSDYITSQDERKLRSEIISAVKRDLSKNKIVIVDSLNYIKGFRYQLHCEVKNLSTTFCVIQTLCPPETIFEWNKTSNPNPWEPELLNQLIQRYEEPNSSNRWDSPLFAILTPQDNITDYIDDICKVVFQTSKSAKNSGHNDPLSKGLQKPNSATVLKPASQSNFIQVLDIETSKIIKTIMNHIKSLTSIGGVSNGTRVIVSEGITDINDDGCFFVDLPIGNVVTLAQLQRLKRQFINFNKLRDIDQDRIGPLFADYLNKNLN
Turning to B1, the binding entry in experiment [1] and in experiment [2] was “binds” each time.
